Data published in patent US6855829B2, “3-fluoro-2-oxindole modulators of KCNQ potassium channels and use thereof in treating migraine and mechanistically related disease” (Bristol-Myers Squibb Company, priority 2001, dated 2005).
At least one compound was matched to its structure with a doubt left.

System: SSS-stimulated field responses recorded in the trigeminal nucleus caudalis
Experiment: SSS-stimulated trigeminal field response (in vivo model of migraine)
Conditions: rat, 3 mg/kg i.p. (p<0.05)
Protocol: Male Long-Evans rats (Harlan, 250-400 g) were used in the experiments described in this example. Prior to testing, rats were allowed access to food and water ad libitum and were maintained on a 12:12 hours light/dark cycle. Rats were group housed in an Association for Assessment and Accreditation of Laboratory Animal Care (A.A.A.L.A.C.) accredited facility and cared for in strict compliance with all applicable regulations. […]
Stimulated field responses were recorded in the trigeminal nucleus caudalis using Teflon coated stainless-steel microelectrodes (5 MΩ impedance, Frederick Haer, Brunswick, Me.) and amplified and filtered (0.1 Hz-10 kHz) using a differential amplifier (#IsoDAM8, World Precision Instruments, Sarasota, Fla.). […]
Three baseline measures (i.e., 100% of control), each consisting of 100 evoked trigeminal field potentials, were sampled prior to drug injection. […] Following injection of test substances, data were sampled for 1 hour, averaged into 5 minute bins (90 evoked potentials) and expressed as a percent change from average baseline values for the purposes of statistical analysis. Data were analyzed using repeated measures analyses of variance comparing vehicle and drug effects. […]

SMILES: CCOC(=O)Nc1ccc(NCc2ccc(F)cc2)cc1N [retigabine, reference compound]
- effect on SSS-stimulated trigeminal field potential amplitudes: significant reduction
